PubChem BioAssay AID1259308 | NCATS, 2017

- Purpose: 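Knock-downs that increase output of a recombinant reporter protein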 (primary screen)
- Cells: human HEK293 embryonic kidney cells stably expressing firefly luciferase (HEK-CMV-Luc2-Hygro)
- Reagent: single siRNA against human genes, 0.8 pmol siRNA per well
- Timing: 72 h
- Read-out: 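Luciferase light (ONE-Glo) measured on one replicate plate set and viability (CellTiter-Glo) on the other, scaled to a negative control siRNA, with robust z-scores and luciferase per cell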
- Scale: total luciferase, z-score: higher = more reporter protein produced
- Rule for the call: 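An siRNA counts as active if its total luciferase robust z-score exceeds 3; genes with two or more such siRNAs out of three were retested with fresh siRNAs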
- Calls: active = raised luciferase; inactive = no rise
Shown is a random part of about 59,000 reagents. About 1,510 of all reagents (2.6%) count as active. 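Calls use total luciferase alone and ignore viability, so some active siRNAs may act by altering cell number.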 A number with no mark means an inactive call. The numbers tell different reagents against one gene apart. Further read-outs or replicates are left out here.

gene symbol	siRNA no.	total luciferase, z-score
ARHGEF17	1	0.0933
ARHGEF17	2	-0.34
ARHGEF17	3	0.799
GOLGA4	1	0.115
GOLGA4	2	-0.861
GOLGA4	3	-0.0139
OR1M1	1	-0.741
OR1M1	2	-0.967
OR1M1	3	-0.00422
IL20	1	-1.6
IL20	2	3.04 (active)
IL20	3	0.21
FTH1	1	0.141
FTH1	2	-0.00563
FTH1	3	-0.291
GALP	1	-0.666
GALP	2	1.33
GALP	3	1.28
RPS27A	1	-2.84
RPS27A	2	-1.99
RPS27A	3	-3.22
G6PC3	1	2.35
G6PC3	2	-1.49
G6PC3	3	1.93
RESF1	1	-0.546
RESF1	2	1.53
RESF1	3	0.611
FAM131C	1	-0.646
FAM131C	2	0.205
FAM131C	3	1.02
KREMEN1	1	0.686
KREMEN1	2	0.253
KREMEN1	3	-0.96
FAM120B	1	1.26
FAM120B	2	-0.294
FAM120B	3	-1.08
XPA	1	1.9
XPA	2	-2.09
XPA	3	-0.206
FRG2B	1	0.733
FRG2B	2	0.526
FRG2B	3	-2.57
EEPD1	1	-0.579
EEPD1	2	-0.1
EEPD1	3	0.341
GEMIN7	1	2.4
GEMIN7	2	0.109
GEMIN7	3	2.85
ASB4	1	-0.0811
ASB4	2	-0.861
ASB4	3	-0.352
ULK4	1	0.921
ULK4	2	3.56 (active)
ULK4	3	1.92
PAPOLA	1	-0.317
PAPOLA	2	1.81
PAPOLA	3	-1.02

5 neighbouring entries from above, quoted:
gene symbol	siRNA no.	total luciferase, z-score
ARHGEF17	3	0.799
GOLGA4	1	0.115
GOLGA4	2	-0.861
GOLGA4	3	-0.0139
OR1M1	1	-0.741
